# According to PubChem BioAssay AID504834 (National Center for Advancing Translational Sciences (NCATS), 2011):
# Out of some 320,000 compounds screened, about 22,000 (6.9%) were called active. This list was built around the results that the source calls inconclusive (neither active nor inactive); the mix of calls is not that of the screen. Calls follow the shape of the dose curve; as a rule, active = well fitted inhibition curve with a large enough effect; inconclusive = small, poorly fitted or top-dose-only effect, or another doubt; inactive = no such curve, though single readings can be large or run the other way. Potencies of inconclusive entries are doubtful fits and often do not repeat.
# Experiment: Primary qHTS for delayed death inhibitors of the malarial parasite plastid, 96 hour incubation
# Details: P. falciparum luciferase reporter growth; series mostly up to 28.7 µM
# Procedure, shortened: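 Readout is luminescence from an integrated firefly luciferase in P. falciparum. Red cells, 2% hematocrit and 0.05% parasitemia final, were cultured with compound through two parasite generations (96 hours) at 37 C, 5% CO2.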
# % is scaled to controls: 0 for no effect and ±100 for the full control effect; potency is read from the fitted curve at half-maximal effect.
SMILES,Potency,"activity change, negative = inhibition"
CC(C)(C)c1ccc(C(CC(=O)O)NC(=O)Cc2ccc(Cl)cc2)cc1 (stereo not given),inactive,–
COc1ccc(C(=O)N/N=C2\SCC(=O)N2Cc2ccc3c(c2)OCO3)c(OC)c1,"inconclusive: 13.1 µM [inhibitor, single point]",–
O=C(Oc1cccc(C(=S)N2CCOCC2)c1)c1ccc([N+](=O)[O-])cc1,inactive,–
O=C(NCc1ccc(F)cc1)c1ccc(CS(=O)(=O)Cc2ccccc2F)o1,"inconclusive: 10.4 µM [inhibitor, single point]",–
N#Cc1c(Cl)nc(Cl)c2c1CCN(Cc1ccccc1)C2,"inconclusive: 13.1 µM [inhibitor, single point]",–
O=C(c1ccccc1)N1CCN(C(=S)NCCc2ccccc2)CC1,"inconclusive: 18.5 µM [inhibitor, single point]",–
O=C1c2ccccc2C(=O)N1CC1c2ccccc2CCN1C(=O)C1CCCCC1 (stereo not given),active: 11.7 µM,–
CC(C)(C)OC(=O)N1CCC(c2c(C(=O)N3CCN(C4CCCCC4)CC3)cnn2-c2ccc(F)cc2)CC1,"inconclusive: 11.7 µM [inhibitor, partial curve, poor fit]",–
COc1ccc(NS(=O)(=O)c2cccc(NC(=O)COc3ccc(OC)cc3)c2)cc1,"inconclusive: 8.28 µM [inhibitor, partial curve, poor fit]",–
Cc1cc(-c2ccc(S(=O)(=O)N3CCN(c4cccc(C(F)(F)F)c4)CC3)s2)on1,active: 13.1 µM,–
Cc1ccc(C)c(N2CCN(C(=O)C3CCN(c4nnc(N5CCCC5=O)s4)CC3)CC2)c1,inactive,–
Cc1cccc2cc(CN(Cc3cccs3)C3(c4nnnn4C4CCCC4)CCCC3)c(=O)[nH]c12,inactive,–
CCC(=O)[C@@]1(C)[C@H](C)C[C@@H]2[C@@H]3CCC4=CC(=O)C=C[C@@]4(C)[C@H]3[C@H](O)C[C@]21C,active: 2.56 µM,–
O=C(NCc1cccnc1)/C(=C\c1ccc(-c2ccc(Br)cc2)o1)S(=O)(=O)c1ccccc1,"inconclusive: 18.5 µM [inhibitor, single point]",–
COc1cccc(/C=N/N2CCN(c3ccc(Cl)cc3)CC2)c1OC,"inconclusive: 0.465 µM [inhibitor, full curve, poor fit]",–
Cc1ccc(C)c(NC(=O)C(OC(=O)c2ccc(NC(=O)CC#N)cc2)c2ccccc2)c1 (stereo not given),"inconclusive: 18.5 µM [inhibitor, single point]",–
Nc1nc(SCc2cccc([N+](=O)[O-])c2)n[nH]1,inactive,–
CCN(c1ccccc1)S(=O)(=O)c1cc(C(=O)O)ccc1C,"inconclusive: 0.0657 µM [inhibitor, full curve, poor fit]",–
COC(F)(F)C(Cl)Cl,inactive,–
CCCNC(=O)CNC(=S)N(Cc1ccccc1F)C1CCCCC1,"inconclusive: 8.28 µM [inhibitor, partial curve, poor fit]",–
CCOC(=O)c1ccccc1NC(=O)COC(=O)c1c(CC)noc1C,"inconclusive: 14.7 µM [inhibitor, partial curve, poor fit]",–
CC(C(=O)Nc1ccc(C#N)cc1)N(C)CC(=O)Nc1cccc(F)c1 (stereo not given),"inconclusive: 0.738 µM [inhibitor, full curve, poor fit]",–
CC(C)Cc1nc2sc3c(NCc4ccco4)ncnc3c2c2c1COC(C)(C)C2,"inconclusive: 4.65 µM [inhibitor, partial curve]",–
Cc1cc(C(=O)CN2C(=O)C(=O)N(C3CCCC3)C2=O)c(C)n1CCc1ccc(F)cc1,inactive,–

SMILES,Potency,"activity change, negative = inhibition"
CCC(C)c1ccc(O)c(NC(=O)c2ncn[nH]2)c1 (stereo not given),active: 3.29 µM,–
CCOC(=O)NC(=O)C(=CNc1cccc(OC)c1)C(=O)NC(=O)OCC,"inconclusive: 10.4 µM [inhibitor, single point]",–
CCCCNC(=O)CC1N=C2c3ccccc3N=C(SCC(=O)Nc3ccc(OC)cc3)N2C1=O (stereo not given),active: 10.4 µM,–
CCNS(=O)(=O)c1ccc(CCC(=O)N2CCN(C(=O)OCC)CC2)cc1,"inconclusive: 13.1 µM [inhibitor, single point]",–
CCOc1cccc2cc(C(C)=O)oc12,inactive,–
Cc1ccc(S(=O)(=O)N(C)C)cc1NC(=O)COc1ccccc1C(=O)Nc1ccccc1,"inconclusive: 13.1 µM [inhibitor, partial curve, poor fit]",–
COc1cc(C2C(C#N)=C(N)Oc3c2oc(CO)cc3=O)cc(OC)c1OC (stereo not given),"inconclusive: 18.5 µM [inhibitor, single point]",–
COc1ccc(CNC(=O)CN(C(=O)c2csnn2)c2ccc(F)cc2)cc1,inactive,–
Cc1cc(/C=C(\C#N)C(=O)OCC#N)c(C)n1CC(C)C,"inconclusive: 4.15 µM [inhibitor, single point]",–
CC(C)CCSc1nnc(N)s1,inactive,–
CC(Sc1nnc(-c2ccccc2F)n1C)C(=O)NC1CCCCC1 (stereo not given),inactive,–
C=CCNC(=O)c1onc(CSc2ccc(Cl)cc2)c1C(=O)NCC=C,inactive,–
Cc1nn(-c2ccccc2)c2nc(N)c(C#N)c(-c3ccc(F)cc3)c12,"inconclusive: 9.28 µM [inhibitor, single point]",–
C=CC[n+]1c(C)csc1Nc1ccc(C)cc1,inactive,–
CCOc1ccc(S(=O)(=O)NCCC(=O)NCCCSc2ccccc2)cc1,"inconclusive: 1.17 µM [inhibitor, partial curve, poor fit]",–
Cc1cccc([C@@H]2[C@@H]3C(=O)N(Cc4ccccc4)C(=O)[C@@H]3[C@]3(C)C(=O)N(c4cccc(F)c4)C(=O)N23)c1,"inconclusive: 18.5 µM [inhibitor, single point]",–
COc1cccc(-c2noc(CCCC(=O)N3CCOCC3)n2)c1,inactive,–
Cc1ccccc1OCc1nc2ccccc2[nH]1,inactive,–
COC(=O)c1ccc(CSc2nnc(NC(=O)C3CC(=O)N(c4ccc5c(c4)OCCO5)C3)s2)cc1 (stereo not given),"inconclusive: 9.28 µM [inhibitor, partial curve]",–
O=C(Nc1cccc([N+](=O)[O-])c1)Nc1cnccn1,"inconclusive: 18.5 µM [inhibitor, single point]",–
c1ccc2c(CNCCN3CCOCC3)cccc2c1,–,inactive: 0.888% [at 5.75 µM]
Cc1ccc(NC(=O)Cn2nc(C(=O)O)c3ccccc3c2=O)c([N+](=O)[O-])c1,inactive,–
Cc1cccc(-n2ncc3c2CCCC3NC(=O)CCN2CCCCO2)c1C (stereo not given),inactive,–
O=C(Nc1cccc(-c2cn3c(n2)SCC3)c1)c1ccc(Br)o1,active: 0.738 µM,–

# Molecules shown so far that contain a thiophene ring, fused or not, in the order listed:
SMILES,Potency,"activity change, negative = inhibition"
Cc1cc(-c2ccc(S(=O)(=O)N3CCN(c4cccc(C(F)(F)F)c4)CC3)s2)on1,active: 13.1 µM,–
Cc1cccc2cc(CN(Cc3cccs3)C3(c4nnnn4C4CCCC4)CCCC3)c(=O)[nH]c12,inactive,–
CC(C)Cc1nc2sc3c(NCc4ccco4)ncnc3c2c2c1COC(C)(C)C2,"inconclusive: 4.65 µM [inhibitor, partial curve]",–

# Next results:

SMILES,Potency,"activity change, negative = inhibition"
CCOc1cc(CNCCO)cc(Br)c1OCc1ccc(Cl)cc1Cl,inactive,–
COc1ccc(S(=O)(=O)N2Cc3ccccc3CC2C(=O)Nc2ccc3c(c2)OCO3)cc1 (stereo not given),"inconclusive: 7.38 µM [inhibitor, partial curve, poor fit]",–
COc1cc(OC)cc(C(=O)NC(C(=O)Nc2ccc3nc(C)sc3c2)C(C)C)c1 (stereo not given),active: 6.57 µM,–
COC(=O)c1ccccc1NC(=O)NC1CCC(C)CC1 (stereo not given),inactive,–
C=CCN(CC=C)CC(O)Cn1c2ccccc2c2ccccc21 (stereo not given),"inconclusive: 18.5 µM [inhibitor, single point]",–
Cc1ccc(C(=O)N/C(=C/c2ccc(Cl)cc2)C(=O)NCC2CCCO2)cc1 (stereo not given),"inconclusive: 1.65 µM [inhibitor, full curve, poor fit]",–
Cc1csc(C(C)N(C)C(=O)CCc2nnc(CCc3ccccc3)o2)n1 (stereo not given),"inconclusive: 2.62 µM [inhibitor, partial curve, poor fit]",–
CCCCCC(=O)O/N=C(\C)c1ccn(S(=O)(=O)c2ccccc2)c1,inactive,–
COC(=O)c1sc2ccccc2c1NC(=O)c1ccc(S(=O)(=O)N2CCCCC2C)cc1 (stereo not given),active: 13.1 µM,–
COC(=O)c1cc(OC)c(OC)cc1NC(=O)c1ccc(C)o1,active: 5.22 µM,–
CCc1nnc(NC(=O)CN2C(=O)/C(=C/c3ccc(OC)c(OC)c3)SC2=S)s1,"inconclusive: 9.28 µM [inhibitor, partial curve, poor fit]",–
Cn1c(SCc2ccccc2)nnc1-c1cccs1,inactive,–
Cc1c(Cl)c([N+](=O)[O-])nn1CC(=O)NCCCN1CCOCC1,"inconclusive: 0.262 µM [inhibitor, full curve]",–
CCCCN1CCc2c(c3ccccc3n2Cc2ccccc2)C1,active: 6.57 µM,–
O=C(NC1CCCCC1)NC1CCN(S(=O)(=O)Cc2ccccc2)CC1,"inconclusive: 14.7 µM [inhibitor, single point]",–
CCCCNC(=O)Cn1cnc2sc(C)c(S(=O)(=O)N3CCN(c4ccccc4OC)CC3)c2c1=O,"inconclusive: 2.94 µM [inhibitor, partial curve, poor fit]",–
Cc1ccc(C)c2[nH]c(=O)c(CN(Cc3ccc4c(c3)OCO4)Cc3nnnn3Cc3ccco3)cc12,"inconclusive: 18.5 µM [inhibitor, partial curve, poor fit]",–
CCCC(=O)N(Cc1cc(=O)[nH]c2ccccc12)c1ccc(OC)cc1,"inconclusive: 18.5 µM [inhibitor, single point]",–
CC(C)Nc1nc(-c2cccnc2)nc(-c2ccccc2)c1C#N,"inconclusive: 4.65 µM [inhibitor, partial curve]",–
Cc1cc(C)n(-c2cc(C(=O)O)cc(C(=O)O)c2)n1,"inconclusive: 8.28 µM [inhibitor, single point]",–
COCCNC(=S)N1C2CCC1CC(NC(=O)NC13CC4CC(CC(C4)C1)C3)C2 (stereo not given),"inconclusive: 13.1 µM [inhibitor, partial curve]",–
O=S(=O)(c1ccc(Cl)cc1)c1nc(-c2ccccc2F)oc1NCCCN1CCOCC1,"inconclusive: 10.4 µM [inhibitor, single point]",–
